These results are taken from article PMC11142916.

For at least one entry, the source does not settle the construct or the ends of the probe. For part of these data: Weaker means in comparison with the reference protein, sequence or condition of that experiment. For part of these data: At least one verdict rests on a figure or table, not on a statement of the authors.

Data set [1] relates to EcoP15I Type III restriction-modification holoenzyme (Mod2Res1) (Escherichia coli). The data set is described as follows: EMSA. Conditions: no ATP, EMSA: 0.1 nM duplex, 100 ng/ul BSA, 20 min, 5% PAGE in TBM with 4 mM MgCl2. (Mobility shift assays separate free from complexed probe on a gel.)
Data set [2] shares this test system. Kind of data set: stopped-flow HEX anisotropy (dissociation). Conditions: heparin trap, anisotropy: 25 nM duplex, 50-75 nM EcoP15I, 2.5 uM heparin, +/- 4 mM ATP, recombinant protein.
Data set [3] has the same test system. The data set is described as follows: 2-aminopurine fluorescence. Conditions: no ATP; 2-aminopurine replaces A at position 11 of strand 1; 25 C; recombinant protein; label: 2-AP.
[4] abbreviates: 5'-biotin on strand 1, recombinant protein, label: 5'-32P strand 2.
Where [5] appears, read: dissociation barely stimulated by ATP, label: 5'-HEX strand 1.
Setting [6] is: ATP, prebound, label: 5'-HEX strand 1.

For orientation: Kd means the constant that tells how readily two partners part at equilibrium. For the sequence “GTGCATACTACAGCAGATACGTTCGGCCAGTACACTCACAACCTTCATACCTGG (double strand) [10/38]”, in data set [1] (setting [4]), the Kd was 0.342 nM.

Take “TACAGCAGATACGTTCGGCCAGTACACTCACAACCTTCATACCTGG (double strand) [2/38]”: in data set [1] (setting [4]), the Kd was determined as 0.533 nM.

For “TGGCTTCAGCAGACC / GCAGATACCAAAACTGTCCTTCTATTGACAATTCG / CGAATTGTCAATAGAAGGACAGTTTTGGTATCTGCGGTCTGCTGAAGCCA [38N/38]”, the binding result in data set [2] (ATP, prebound, 5'-phosphate on S117, label: 5'-HEX S125) is given as “binds”.

With “TGGCTTCAGCAGACCGCAG (double strand) [7/7]”, in data set [2] (no ATP, label: 5'-HEX strand 1), the binding result is reported as “binds more weakly”.

As to “TGGCTTCAGCAGACCGCAGA (double strand) [8/8]”, the binding result in data set [2] (no ATP, label: 5'-HEX strand 1) was “binds more weakly”.

In the case of “TGGCTTCAGCAGACCGCAGAT (double strand) [9/9]”, in data set [2] (no ATP, label: 5'-HEX strand 1), the binding result was “binds more weakly”.

As for “TGGCTTCAGCAGACCGCAGATA (double strand) [10(P3')/10]”, the binding result in data set [2] (small stability gain over 10/10, 3'-phosphate strand 1, label: 5'-HEX strand 1) was “binds more weakly”.

On to “TGGCTTCAGCAGACCGCAGATA (double strand) [10/10]”, for which the binding result in data set [2] (no ATP, label: 5'-HEX strand 1) is reported as “binds more weakly”.

As for “TGGCTTCAGCAGACCGCAGATA / TGGTATCTGCGGTCTGCTGAAGCCA [10/13]”, the binding result in data set [2] (TS extension little effect vs 10/10, label: 5'-HEX strand 1) is reported as “binds more weakly”.

In the case of “TGGCTTCAGCAGACCGCAGATAC (double strand) [11/11]”, the binding result in data set [2] (setting [5]) was “binds”.

Regarding “TGGCTTCAGCAGACCGCAGATACC (double strand) [12/12]”, the binding result in data set [2] (setting [5]) is “binds”.

“TGGCTTCAGCAGACCGCAGATACC / TGGTATCTGCGGTCTGCTGAAGCCA [12/12+1T]”: the binding result in data set [2] (setting [6]) was “binds”.

With “TGGCTTCAGCAGACCGCAGATACC / TTGGTATCTGCGGTCTGCTGAAGCCA [12/12+2T]”, the binding result in data set [2] (setting [6]) was “binds”.

With “TGGCTTCAGCAGACCGCAGATACC / TTTGGTATCTGCGGTCTGCTGAAGCCA [12/12+3T]”, in data set [2] (setting [6]), the binding result is “binds”.

In the case of “TGGCTTCAGCAGACCGCAGATACC / TTTTGGTATCTGCGGTCTGCTGAAGCCA [12/12+4T]”, in data set [2] (setting [6]), the binding result is given as “binds”.

“TGGCTTCAGCAGACCGCAGATACC / TTTTTGGTATCTGCGGTCTGCTGAAGCCA [12/12+5T]”: the binding result in data set [2] (setting [6]) was “binds”.

In the case of “TGGCTTCAGCAGACCGCAGATACCA (double strand) [13/13]”, in data set [2] (no ATP, label: 5'-HEX strand 1), the binding result is reported as “binds”.

As to “TGGCTTCAGCAGACCGCAGATACCA / TATCTGCGGTCTGCTGAAGCCA [13/10]”, the binding result in data set [2] (MS extension stabilises, label: 5'-HEX strand 1) is reported as “binds”.

For “TGGCTTCAGCAGACCGCAGATACCAA (double strand) [14/14]”, the binding result in data set [2] (no ATP, label: 5'-HEX strand 1) was “binds”.

Take “TGGCTTCAGCAGACCGCAGATACCAAA (double strand) [15/15]”: in data set [2] (no ATP, label: 5'-HEX strand 1), the binding result is on record as “binds”.

With “TGGCTTCAGCAGACCGCAGATACCAAAA (double strand) [16/16]”, in data set [2] (no ATP, label: 5'-HEX strand 1), the binding result is “binds”.

Take “TGGCTTCAGCAGACCGCAGATACCAAAAC (double strand) [17/17 HEX]”: the binding result in data set [2] (no ATP, label: 5'-HEX strand 1) was “binds”.

In the case of “TGGCTTCAGCAGACCGCAGATACCAAAAC (double strand) [17/17 biotin (band shift)]”, the Kd was 0.255 nM in data set [1] (10 nM streptavidin on biotin end, 5'-biotin on strand 2, recombinant …, label: 5'-32P strand 1) and 0.207 nM in data set [1] (without streptavidin, 5'-biotin on strand 2, recombinant protein, label: 5'-32P strand 1).

Regarding “TGGCTTCAGCAGACCGCAGATACCAAAACT (double strand) [18/18]”, the binding result in data set [2] (no ATP, label: 5'-HEX strand 1) is recorded as “binds”.

Take “TGGCTTCAGCAGACCGCAGATACCAAAACTG (double strand) [19/19]”: the binding result in data set [2] (no ATP, label: 5'-HEX strand 1) is “binds”.

Consider “TGGCTTCAGCAGACCGCAGATACCAAAACTGT (double strand) [20/20]”, for which the binding result in data set [2] (no ATP, label: 5'-HEX strand 1) is given as “binds”.

Regarding “TGGCTTCAGCAGACCGCAGATACCAAAACTGTC (double strand) [21/21]”, in data set [2] (no ATP, label: 5'-HEX strand 1), the binding result is given as “binds”.

In the case of “TGGCTTCAGCAGACCGCAGATACCAAAACTGTCC (double strand) [22/22]”, in data set [2] (no ATP, label: 5'-HEX strand 1), the binding result is given as “binds”.

In the case of “TGGCTTCAGCAGACCGCAGATACCAAAACTGTCCT (double strand) [23/23]”, the binding result in data set [2] (no ATP, label: 5'-HEX strand 1) was “binds”.

In the case of “TGGCTTCAGCAGACCGCAGATACCAAAACTGTCCTT (double strand) [24/24]”, the binding result in data set [2] (no ATP, label: 5'-HEX strand 1) is “binds”.

As for “TGGCTTCAGCAGACCGCAGATACCAAAACTGTCCTTC (double strand) [25/25]”, the binding result in data set [2] (no ATP, label: 5'-HEX strand 1) is recorded as “binds”.

Turning to “TGGCTTCAGCAGACCGCAGATACCAAAACTGTCCTTCTATTGACAATTCG (double strand) [2-aminopurine 38/38]”, in data set [3], the binding result was “binds”.

Consider “TGGCTTCAGCAGACCGCAGATACCAAAACTGTCCTTCTATTGACAATTCG (double strand) [38/38]”, for which the binding result in data set [2] (no ATP, label: 5'-HEX strand 1) is “binds”.

For the sequence “TGGCTTCAGCAGACCGCAGATACCAAAACTGTCCTTCTATTGACAATTCG (double strand) [MS_Rev]”, the binding result in data set [2] (ATP, prebound, reversed backbone polarity (3'-AAAAC-5', joined 3'-3' and 5'-5') at positions 25-29 of strand 1, bases written in printed order, label: 5'-HEX strand 1, synthetic backbone) is listed as “binds”.

With “TGGCTTCAGCAGACCGCAGATACCAAAACTGTCCTTCTATTGACAATTCG (double strand) [TS_Rev]”, in data set [2] (ATP, prebound, slower dissociation, reversed backbone polarity (3'-GTTTT-5', joined 3'-3' and 5'-5') at positions 22-26 of strand 2, bases written in printed order, label: 5'-HEX strand 1, synthetic backbone), the binding result is recorded as “binds”.

On to “TGGCTTCAGCAGACCGCAGATACCAAAACTGTCCTTCTATTGACAATTCG / CGAATTGTCAATAGAAGGACAGTTTTGGTATCTGC / GGTCTGCTGAAGCCA [38/38N]”, for which, in data set [2] (ATP, prebound, 5'-phosphate on S119, label: 5'-HEX S20), the binding result is given as “binds”.

For “TGGCTTCAGCAGACCGCAGATACCT / GGTATCTGCGGTCTGCTGAAGCCA [12+1T/12]”, in data set [2] (setting [6]), the binding result was “binds”.

Take “TGGCTTCAGCAGACCGCAGATACCTT / GGTATCTGCGGTCTGCTGAAGCCA [12+2T/12]”: the binding result in data set [2] (setting [6]) is “binds”.

In the case of “TGGCTTCAGCAGACCGCAGATACCTTT / GGTATCTGCGGTCTGCTGAAGCCA [12+3T/12]”, the binding result in data set [2] (setting [6]) was “binds”.

Regarding “TGGCTTCAGCAGACCGCAGATACCTTTT / GGTATCTGCGGTCTGCTGAAGCCA [12+4T/12]”, the binding result in data set [2] (setting [6]) is given as “binds”.

For “TGGCTTCAGCAGACCGCAGATACCTTTTT / GGTATCTGCGGTCTGCTGAAGCCA [12+5T/12]”, the binding result in data set [2] (setting [6]) was “binds”.
